Data from the M2OR odorant receptor database.
Only a part is listed here, and it is no random draw. Calls are pooled over several reports, among them a noisy single-well screen. Some of the results follow.

What was measured:
Conditions in all cases: stereoisomer not certain
[1] = biological target: T1, OR6C2 (Homo sapiens) (UniProt Q9NZP2)
T1 sequence (whole entry): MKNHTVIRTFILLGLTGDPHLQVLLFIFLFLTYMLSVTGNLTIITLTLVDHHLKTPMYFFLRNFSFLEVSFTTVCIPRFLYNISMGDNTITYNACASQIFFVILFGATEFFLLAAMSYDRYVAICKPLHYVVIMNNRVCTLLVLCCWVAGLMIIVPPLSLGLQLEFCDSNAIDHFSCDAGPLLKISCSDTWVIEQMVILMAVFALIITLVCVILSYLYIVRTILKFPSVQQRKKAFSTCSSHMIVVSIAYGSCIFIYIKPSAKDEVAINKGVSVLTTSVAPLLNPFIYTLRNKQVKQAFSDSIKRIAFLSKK
Procedure, shortened: (§1)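 Values were gathered from published papers (main text and supplementary material), with extra details requested from the original authors when needed, and checked for typos and inconsistencies. Each receptor–molecule pair is called responsive (active) if the original authors judged the measured signal statistically different from baseline, and non-responsive (inactive) otherwise. Assay methods varied by source, often transient mammalian cell-line luciferase assays. Recorded details include cell line, G-protein, co-transfected protein and tags.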

[2] = biological target: T2, OR6C3 (Homo sapiens) (UniProt Q9NZP0)
T2 sequence (whole entry): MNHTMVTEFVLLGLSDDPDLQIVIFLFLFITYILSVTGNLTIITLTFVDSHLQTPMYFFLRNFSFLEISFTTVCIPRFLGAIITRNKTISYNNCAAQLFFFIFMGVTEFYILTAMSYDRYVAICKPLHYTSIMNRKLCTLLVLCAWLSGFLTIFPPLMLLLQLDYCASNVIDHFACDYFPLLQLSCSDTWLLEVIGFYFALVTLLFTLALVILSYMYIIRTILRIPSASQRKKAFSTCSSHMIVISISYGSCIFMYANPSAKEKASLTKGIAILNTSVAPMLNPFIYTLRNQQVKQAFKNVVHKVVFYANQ
Procedure, shortened: as §1

[3] = tested on: T3, OR6C4
T3 sequence (whole entry): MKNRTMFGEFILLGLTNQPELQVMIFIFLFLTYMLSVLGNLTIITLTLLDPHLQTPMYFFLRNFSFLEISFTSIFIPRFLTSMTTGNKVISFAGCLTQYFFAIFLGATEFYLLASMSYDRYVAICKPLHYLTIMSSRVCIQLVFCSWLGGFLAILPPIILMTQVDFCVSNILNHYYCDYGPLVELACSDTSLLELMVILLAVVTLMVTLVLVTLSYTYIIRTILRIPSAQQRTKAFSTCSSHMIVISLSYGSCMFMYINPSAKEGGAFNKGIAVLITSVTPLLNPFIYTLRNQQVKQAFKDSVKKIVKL
Procedure, shortened: as §1

[4] = biological target: T4, OR6C6 (Homo sapiens) (UniProt A6NF89)
T4 sequence (whole entry): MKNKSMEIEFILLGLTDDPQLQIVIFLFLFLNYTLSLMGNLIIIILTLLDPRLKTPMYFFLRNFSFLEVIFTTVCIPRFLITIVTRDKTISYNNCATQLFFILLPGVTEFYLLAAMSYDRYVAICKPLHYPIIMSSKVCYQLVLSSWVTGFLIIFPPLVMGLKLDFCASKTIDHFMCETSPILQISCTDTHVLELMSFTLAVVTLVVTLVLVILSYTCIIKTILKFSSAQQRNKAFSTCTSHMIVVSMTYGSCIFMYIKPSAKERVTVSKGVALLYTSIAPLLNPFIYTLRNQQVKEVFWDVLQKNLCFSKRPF
Procedure, shortened: as §1

[5] = biological target: T5, OR6C65 (Homo sapiens) (UniProt A6NJZ3)
T5 sequence (whole entry): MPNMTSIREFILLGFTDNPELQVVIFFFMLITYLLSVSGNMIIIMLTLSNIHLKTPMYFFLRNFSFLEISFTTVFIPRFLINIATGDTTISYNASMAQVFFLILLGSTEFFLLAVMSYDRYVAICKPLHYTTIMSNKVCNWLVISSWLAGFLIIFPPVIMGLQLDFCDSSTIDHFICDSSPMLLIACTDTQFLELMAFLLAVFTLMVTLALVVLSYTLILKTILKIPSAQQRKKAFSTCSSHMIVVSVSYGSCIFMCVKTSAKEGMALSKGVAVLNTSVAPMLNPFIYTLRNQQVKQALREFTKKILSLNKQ
Procedure, shortened: as §1

[6] = biological target: T6, OR6C74 (Homo sapiens) (UniProt A6NCV1)
T6 sequence (whole entry): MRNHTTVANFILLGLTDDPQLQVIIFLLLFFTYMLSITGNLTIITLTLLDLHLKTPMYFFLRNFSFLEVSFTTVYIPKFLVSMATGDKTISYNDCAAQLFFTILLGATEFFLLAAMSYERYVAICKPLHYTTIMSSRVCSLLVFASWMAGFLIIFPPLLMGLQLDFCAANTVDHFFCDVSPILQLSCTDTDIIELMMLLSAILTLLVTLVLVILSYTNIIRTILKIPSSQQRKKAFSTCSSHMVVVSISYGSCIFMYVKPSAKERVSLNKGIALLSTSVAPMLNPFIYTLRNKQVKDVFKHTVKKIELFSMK
Procedure, shortened: as §1

[7] = biological target: T7, OR6C75 (Homo sapiens) (UniProt A6NL08)
T7 sequence (whole entry): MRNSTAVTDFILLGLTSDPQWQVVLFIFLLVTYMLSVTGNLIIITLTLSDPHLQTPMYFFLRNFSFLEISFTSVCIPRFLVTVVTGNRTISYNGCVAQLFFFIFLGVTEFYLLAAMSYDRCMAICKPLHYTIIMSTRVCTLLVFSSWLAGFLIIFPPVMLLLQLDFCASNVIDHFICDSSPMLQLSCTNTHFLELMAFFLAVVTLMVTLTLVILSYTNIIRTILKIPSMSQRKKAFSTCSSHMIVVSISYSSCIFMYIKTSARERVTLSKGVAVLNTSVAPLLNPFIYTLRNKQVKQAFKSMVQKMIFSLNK
Procedure, shortened: as §1

[8] = biological target: T8, OR6C76 (Homo sapiens) (UniProt A6NM76)
T8 sequence (whole entry): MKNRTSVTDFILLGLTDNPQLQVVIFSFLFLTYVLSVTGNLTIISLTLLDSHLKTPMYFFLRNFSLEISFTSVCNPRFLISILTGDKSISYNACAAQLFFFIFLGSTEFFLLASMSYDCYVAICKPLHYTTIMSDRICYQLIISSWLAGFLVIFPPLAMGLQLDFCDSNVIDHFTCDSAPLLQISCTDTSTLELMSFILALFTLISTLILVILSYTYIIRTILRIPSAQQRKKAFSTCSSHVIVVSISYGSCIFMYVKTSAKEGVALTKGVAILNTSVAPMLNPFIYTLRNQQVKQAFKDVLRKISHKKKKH
Procedure, shortened: as §1

[9] = biological target: T9, OR6F1 (Homo sapiens) (UniProt Q8NGZ6)
T9 sequence (whole entry): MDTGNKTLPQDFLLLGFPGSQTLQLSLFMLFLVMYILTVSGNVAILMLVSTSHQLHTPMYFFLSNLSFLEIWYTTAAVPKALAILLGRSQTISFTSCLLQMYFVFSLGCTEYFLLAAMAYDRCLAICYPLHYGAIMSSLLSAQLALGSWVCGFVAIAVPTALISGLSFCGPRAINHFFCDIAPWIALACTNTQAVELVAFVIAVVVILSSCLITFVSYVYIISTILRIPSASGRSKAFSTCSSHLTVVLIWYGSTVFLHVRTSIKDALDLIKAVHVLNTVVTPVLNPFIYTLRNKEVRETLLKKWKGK
Procedure, shortened: as §1

[10] = tested on: T10, OR6J1
T10 sequence (whole entry): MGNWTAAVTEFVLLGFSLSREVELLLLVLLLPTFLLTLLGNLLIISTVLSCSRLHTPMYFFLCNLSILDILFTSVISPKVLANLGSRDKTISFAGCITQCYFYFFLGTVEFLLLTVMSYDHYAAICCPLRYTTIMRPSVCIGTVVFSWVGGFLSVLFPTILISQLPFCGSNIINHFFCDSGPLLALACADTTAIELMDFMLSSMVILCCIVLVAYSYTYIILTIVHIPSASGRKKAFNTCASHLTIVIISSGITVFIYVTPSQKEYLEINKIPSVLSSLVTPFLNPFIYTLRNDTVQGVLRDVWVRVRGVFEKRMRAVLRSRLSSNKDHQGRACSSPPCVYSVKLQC
Procedure, shortened: as §1

Measured: odorant receptor agonist call

CS
inactive: all assays above
